# Reference: patent publication US20200347127A1 (CRESCENDO BIOLOGICS, published 2020)
# Protein sequences, listed by entry. Tags and fused reporters are not part of them. Lines headed by an entry give the natural chain unless they say otherwise; changes in a name come on top.
# UniProt Q16552: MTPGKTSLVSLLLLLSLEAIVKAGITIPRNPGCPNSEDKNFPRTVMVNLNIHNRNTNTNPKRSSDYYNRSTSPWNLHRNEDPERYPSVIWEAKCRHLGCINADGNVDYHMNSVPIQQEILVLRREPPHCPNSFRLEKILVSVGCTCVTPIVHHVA
# No constants are given. Whether binding was seen depends on the method and setting. Some results given as binding are weak or reduced against the parent protein; the word gives no strength. For part of these data: Sequences can lack the tags named with a protein.
# T1: Pig IL17 (pig) (UniProt Q60I29)
# T1 sequence (cytokine, looked up): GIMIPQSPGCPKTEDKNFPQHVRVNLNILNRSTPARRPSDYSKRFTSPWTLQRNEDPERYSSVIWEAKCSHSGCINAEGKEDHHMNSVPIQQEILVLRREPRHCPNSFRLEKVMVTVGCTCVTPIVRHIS
# Tests used:
# [1] = molecular target: recombinant human IL-17A (human, UniProt Q16552 24-155); assay: Octet; concentrations and the partner are not given, IL-17A by the context of Example 12
# [2] = molecular target: T1, Pig IL17 (pig); assay: specificity ELISA on coated antigen, VH concentration not given
Binder,binding [1],binding [2]
Clone 1.2 (VHH) VHH: EVQLVESGGGLVQPGGSLRLSCAASGFTFSSYSMYWVRQAPGKGLEWVAEIKQDGSVQYYVSDVKGRFTISRDNAKNSLYLQMNSLRAEDTAVYYCAKGEILPLYFDYWGQGTLVTVSS,binds,–
"VH 1.6.1 (clone 1.6 expressed from phagemid vector: with linker residues and His tag) (VHH, Human single VH domain) VHH: EVQLVESGGGLVQPGGSLRLSCAASGFTFSSYSMYWVRQAPGKGLEWVAEIKQDGSEQYYVDSVKGRFTISRDNAKNSLYLQMNSLRAEDTAVYYCAKGEILPLYFDYWGQGTLVTVSS",–,binds
"VH 1.10.1 (clone 1.10 expressed from phagemid vector: with linker residues and His tag) (VHH, Human single VH domain) VHH: EVQLVESGGGLVQPGGSLRLSCAASGFTFSSYRMYWVRQAPGKGLEWVASIEQDGSEEYYVDSVKGRFTISRDNAKKSLFLQMNSLRAEDTAVYYCAKGEILPLYFDYWGQGTLVTVSS",–,binds
